PubChem BioAssay AID686938 – Drosophila RNAi Screening Center | 2013
The screen tested about 23,000 reagents; below is an unselected part of those with a known target gene and a result. In the full data, 75 (0.33%) are marked active. 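Raw plate signals without normalisation; calls rest on plate z-scores that were not deposited; ratio present for only 364 wells.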 Entries without a mark were called inactive. Reagents against one gene are numbered here. Names joined by + are all predicted targets of the reagent. Not stated in the record: the dose of the treatment.

Assay: 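Knock-downs reducing store-operated calcium influx in Drosophila cells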 (primary screen)
Cell system: Drosophila S2R+ cells
Knock-down reagent: long dsRNA against Drosophila genes, about 0.25 µg dsRNA per well, roughly 10,000 cells
Timing: 5 days of knock-down before the calcium assay
Challenge: thapsigargin (SERCA pump blocker) to empty calcium stores; entry signal taken 4 min after adding it
Measurement: 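Per-well fluo-4 fluorescence in two replicates, unnormalised, measured in resting cells and 4 min after store depletion by the SERCA blocker thapsigargin; ratio of the two present in few wells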
Reading the numbers: calcium entry signal: higher = stronger calcium signal after store depletion; entry to resting ratio: higher = more calcium entry relative to resting level; resting calcium signal: higher = higher resting calcium signal
Hit rule: 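Hit if the duplicate-averaged plate z-score for entry over resting signal is under −3; wells with weak total dye signal (Fmax z < −2) or more than 5 off-targets removed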
Meaning of the calls: active = strongly reduced calcium entry; inactive = no strong reduction

gene knocked down	reagent no.	calcium entry signal, replicate 1 (fluorescence units)	calcium entry signal, replicate 2 (fluorescence units)	entry to resting ratio	resting calcium signal, replicate 1 (fluorescence units)	resting calcium signal, replicate 2 (fluorescence units)
CG7029	1	4.41e7	3.91e7		1.81e7	1.58e7
Prosbeta4	1	2.17e7	1.22e7		1.45e7	8.77e6
CG34133	1	3.56e7	4.36e7		1.71e7	2.14e7
CG34133	2	3.22e7	4.31e7		1.55e7	2.47e7
Grip71	1	1.91e7	3.64e7		1.03e7	1.63e7
Sln	1	3.33e7	5.15e7		1.63e7	2.05e7
CG42685	1	5.18e7	5.82e7		2.10e7	2.52e7
Lcp65Ag3	1	2.27e7	2.15e7		1.21e7	1.12e7
CG11836	1	4.99e7	4.66e7		2.36e7	1.82e7
Naa35	1	4.29e7			2.18e7	
CG33958	1	4.97e7	4.32e7		2.12e7	2.07e7
CG33958	2	5.08e7	4.94e7		2.20e7	2.27e7
CycD	1	3.67e7	3.37e7		2.13e7	1.81e7
nrv2	1	3.52e7	3.79e7		2.07e7	1.80e7
nrv2	2	3.42e7			1.80e7	
CG17350	1	6.47e7	5.47e7		3.04e7	2.42e7
CG32106	1	4.15e7	4.76e7		1.92e7	2.20e7
Mrtf	1	3.61e7	4.03e7		1.89e7	1.88e7
Mrtf	2	3.84e7	4.47e7		2.18e7	2.00e7
Mrtf	3	4.52e7	4.46e7		2.53e7	2.01e7
Mrtf	4	3.78e7	3.70e7		1.84e7	1.46e7
CG9467	1	3.41e7	4.47e7		1.51e7	1.93e7
CG17249	1	3.84e7	3.34e7		1.73e7	1.67e7
Taldo	1	3.37e7			1.66e7	
ND-20	1	4.60e7	4.50e7		2.14e7	2.13e7
ap	1	3.44e7			1.75e7	
CG7991	1	4.12e7	4.86e7		2.15e7	2.20e7
Nup93-1	1	1.95e7	2.38e7		1.10e7	1.25e7
nemy	1	3.77e7	5.49e7		1.77e7	2.55e7
nemy	2	4.20e7	7.07e7		1.73e7	2.75e7
asRNA:CR30267	1	3.21e7	3.97e7		1.86e7	1.88e7
Obp22a	1	3.39e7	3.59e7		1.83e7	1.71e7
BomS4	1	4.35e7	3.56e7		2.38e7	1.71e7
CG42471	1	4.79e7	4.73e7		2.33e7	2.21e7
CG15927	1	4.34e7	3.96e7		1.90e7	2.07e7
Psc	1	2.20e7	3.09e7		1.16e7	1.28e7
sens-2	1	3.53e7	3.23e7		1.68e7	1.62e7
sens-2	2	3.56e7	2.94e7		1.66e7	1.53e7
sens-2	3	4.34e7	3.03e7		2.25e7	1.52e7
tRNA:Leu-CAA-2-3	1	2.79e7	4.59e7		1.42e7	1.99e7
CG44251	1	2.26e7	3.22e7		1.21e7	1.29e7
gwl	1	2.22e7	2.51e7		1.12e7	1.12e7
l(1)10Bb	1	4.08e7	3.72e7		1.99e7	2.05e7
slmb	1	3.88e7	3.64e7		1.69e7	1.54e7
Pdfr	1	2.61e7	3.19e7	1.8	1.41e7	1.48e7
CG10376	1	4.06e7			1.95e7	
CG12744	1	4.03e7	3.70e7		1.78e7	1.78e7
MsR1	1	3.76e7	3.87e7		1.80e7	1.61e7
CG34384	1	2.09e7	5.04e7		1.02e7	2.56e7
CG34384	2	2.12e7	4.15e7		1.08e7	1.69e7
CG34384	3	3.59e7	2.85e7		1.75e7	1.44e7
CG34384	4	4.20e7	3.06e7		2.05e7	1.53e7
CG34384	5	4.38e7	3.04e7		2.19e7	1.46e7
Naa20A	1	2.14e7	2.19e7		1.09e7	9.75e6
CRAT	1	3.31e7	2.80e7		1.68e7	1.38e7
CG11808	1	2.18e7	2.10e7		1.01e7	9.91e6
LysD + LysB + LysC (retired record)	1	4.55e7	4.39e7		2.41e7	1.96e7
Sas10	1	1.54e7	2.08e7		9.47e6	1.16e7
slx1	1	3.10e7	5.77e7		1.48e7	2.61e7
AstA	1	4.20e7	3.45e7		2.09e7	1.49e7
CG15260	1	3.42e7	2.53e7		1.70e7	1.32e7
CG32152	1	3.44e7	3.07e7		1.88e7	1.37e7
CG17985	1	4.21e7	4.01e7		1.89e7	1.58e7
CG14767	1	4.13e7	4.37e7		1.74e7	2.00e7
CG4763	1	2.00e7	3.45e7		1.11e7	1.48e7
CG4763	2	4.98e7	5.58e7		2.44e7	2.49e7
Sol1	1	3.17e7	3.09e7		1.66e7	1.68e7
Sol1	2	3.40e7	3.59e7		1.60e7	1.92e7
Sol1	3	3.07e7	3.40e7		1.55e7	1.73e7
Tom7	1	2.21e7	3.62e7		1.15e7	1.53e7
Tom7	2	2.83e7	3.76e7		1.46e7	1.73e7
srw	1	3.01e7	3.23e7		1.70e7	1.46e7
CG13437	1	2.91e7	3.42e7		1.44e7	1.47e7
CG7059	1	4.25e7	4.60e7		6.06e7	2.08e7
GstD1	1	3.80e7	3.32e7		1.90e7	1.76e7

An excerpt taken from the entries so far:
gene knocked down	reagent no.	calcium entry signal, replicate 1 (fluorescence units)	calcium entry signal, replicate 2 (fluorescence units)	entry to resting ratio	resting calcium signal, replicate 1 (fluorescence units)	resting calcium signal, replicate 2 (fluorescence units)
CG12744	1	4.03e7	3.70e7		1.78e7	1.78e7
MsR1	1	3.76e7	3.87e7		1.80e7	1.61e7
CG34384	1	2.09e7	5.04e7		1.02e7	2.56e7
CG34384	2	2.12e7	4.15e7		1.08e7	1.69e7
